Source: publication PMC4332418
These are yes or no findings as the source states them, for the method shown. Some results given as binding are weak or reduced against the parent protein; the word gives no strength.

Target: Neuroserpin (human, recombinant, wild type) (human) (UniProt Q99574)
Test: SEC; 20 uM native NS incubated at 55 °C for 2 h; polymers then separated from latent NS by size exclusion chromatography; both purified

- binding: binds
B1: Neuroserpin (human, recombinant, wild type) (protein, UniProt Q99574 17-410)
chain: TGATFPEEAIADLSVNMYNRLRATGEDENILFSPLSIALAMGMMELGAQGSTQKEIRHSMGYDSLKNGEEFSFLKEFSNMVTAKESQYVMKIANSLFVQNGFHVNEEFLQMMKKYFNAAVNHVDFSQNVAVANYINKWVENNTNNLVKDLVSPRDFDAATYLALINAVYFKGNWKSQFRPENTRTFSFTKDDESEVQIPMMYQQGEFYYGEFSDGSNEAGGIYQVLEIPYEGDEISMMLVLSRQEVPLATLEPLVKAQLVEEWANSVKKQKVEVYLPRFTVEQEIDLKDVLKALGITEIFIKDANLTGLSDNKEIFLSKAIHKSFLEVNEEGSEAAAVSGMIAISRMAVLYPQVIVDHPFFFLIRNRRTGTILFMGRVMHPETMNTSGHDFEEL
